# Assay results as given in the supplement of paper PMC10849652.
# The chains behind the UniProt entries cited, without tags or fusion partners. Where a name states a change or a piece, a line headed by the entry shows the natural chain unless it says otherwise.
# UniProt Q9GZN7, whole entry, looked up: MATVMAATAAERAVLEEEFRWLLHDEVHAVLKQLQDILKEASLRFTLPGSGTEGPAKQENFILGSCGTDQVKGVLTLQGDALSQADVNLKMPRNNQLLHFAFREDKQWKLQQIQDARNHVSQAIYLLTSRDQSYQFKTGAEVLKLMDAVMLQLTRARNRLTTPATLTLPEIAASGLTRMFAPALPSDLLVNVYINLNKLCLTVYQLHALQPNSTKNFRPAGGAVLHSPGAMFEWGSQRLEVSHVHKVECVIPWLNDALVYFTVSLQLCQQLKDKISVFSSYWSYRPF
# UniProt Q8TA86: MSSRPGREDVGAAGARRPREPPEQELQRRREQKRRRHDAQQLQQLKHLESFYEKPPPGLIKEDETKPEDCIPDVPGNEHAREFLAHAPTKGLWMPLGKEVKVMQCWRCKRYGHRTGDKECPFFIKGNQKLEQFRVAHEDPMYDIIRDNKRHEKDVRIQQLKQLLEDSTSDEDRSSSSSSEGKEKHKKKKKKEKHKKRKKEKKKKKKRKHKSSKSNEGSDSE
# UniProt Q9Y225: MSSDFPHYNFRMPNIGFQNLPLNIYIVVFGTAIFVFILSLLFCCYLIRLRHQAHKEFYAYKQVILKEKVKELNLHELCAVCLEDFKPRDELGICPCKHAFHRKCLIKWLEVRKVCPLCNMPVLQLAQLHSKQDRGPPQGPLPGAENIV
# UniProt Q96G75, whole entry, looked up: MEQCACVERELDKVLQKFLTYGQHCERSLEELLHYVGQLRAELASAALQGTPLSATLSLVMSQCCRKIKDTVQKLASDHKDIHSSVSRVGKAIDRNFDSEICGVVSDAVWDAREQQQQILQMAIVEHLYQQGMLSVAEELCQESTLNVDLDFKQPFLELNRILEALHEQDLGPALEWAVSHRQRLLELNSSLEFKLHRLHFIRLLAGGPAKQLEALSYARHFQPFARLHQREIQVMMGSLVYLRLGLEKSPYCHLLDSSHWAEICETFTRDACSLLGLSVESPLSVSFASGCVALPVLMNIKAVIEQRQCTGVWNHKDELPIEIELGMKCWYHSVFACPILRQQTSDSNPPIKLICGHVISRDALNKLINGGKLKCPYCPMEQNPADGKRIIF
# UniProt P78317: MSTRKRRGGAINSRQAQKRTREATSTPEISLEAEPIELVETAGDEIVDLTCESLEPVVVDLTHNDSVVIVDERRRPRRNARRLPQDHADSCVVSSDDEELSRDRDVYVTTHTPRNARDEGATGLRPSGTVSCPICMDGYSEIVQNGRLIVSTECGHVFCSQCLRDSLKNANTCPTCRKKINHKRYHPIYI
# UniProt Q9H4P4: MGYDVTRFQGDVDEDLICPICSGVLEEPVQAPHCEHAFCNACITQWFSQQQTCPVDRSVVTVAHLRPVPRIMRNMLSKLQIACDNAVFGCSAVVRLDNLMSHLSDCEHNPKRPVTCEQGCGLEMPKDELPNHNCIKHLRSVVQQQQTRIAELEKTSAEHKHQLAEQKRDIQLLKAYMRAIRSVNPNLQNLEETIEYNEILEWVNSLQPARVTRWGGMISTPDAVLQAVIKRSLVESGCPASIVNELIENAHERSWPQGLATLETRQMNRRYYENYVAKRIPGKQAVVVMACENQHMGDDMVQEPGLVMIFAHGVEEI
# UniProt Q86UA6: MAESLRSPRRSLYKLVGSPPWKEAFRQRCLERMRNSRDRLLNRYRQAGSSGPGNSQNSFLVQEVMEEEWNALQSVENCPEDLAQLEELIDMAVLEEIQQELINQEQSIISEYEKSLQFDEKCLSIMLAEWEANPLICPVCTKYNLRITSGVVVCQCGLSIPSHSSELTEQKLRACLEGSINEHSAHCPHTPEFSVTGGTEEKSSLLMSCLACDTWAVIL
# UniProt Q6NUQ1: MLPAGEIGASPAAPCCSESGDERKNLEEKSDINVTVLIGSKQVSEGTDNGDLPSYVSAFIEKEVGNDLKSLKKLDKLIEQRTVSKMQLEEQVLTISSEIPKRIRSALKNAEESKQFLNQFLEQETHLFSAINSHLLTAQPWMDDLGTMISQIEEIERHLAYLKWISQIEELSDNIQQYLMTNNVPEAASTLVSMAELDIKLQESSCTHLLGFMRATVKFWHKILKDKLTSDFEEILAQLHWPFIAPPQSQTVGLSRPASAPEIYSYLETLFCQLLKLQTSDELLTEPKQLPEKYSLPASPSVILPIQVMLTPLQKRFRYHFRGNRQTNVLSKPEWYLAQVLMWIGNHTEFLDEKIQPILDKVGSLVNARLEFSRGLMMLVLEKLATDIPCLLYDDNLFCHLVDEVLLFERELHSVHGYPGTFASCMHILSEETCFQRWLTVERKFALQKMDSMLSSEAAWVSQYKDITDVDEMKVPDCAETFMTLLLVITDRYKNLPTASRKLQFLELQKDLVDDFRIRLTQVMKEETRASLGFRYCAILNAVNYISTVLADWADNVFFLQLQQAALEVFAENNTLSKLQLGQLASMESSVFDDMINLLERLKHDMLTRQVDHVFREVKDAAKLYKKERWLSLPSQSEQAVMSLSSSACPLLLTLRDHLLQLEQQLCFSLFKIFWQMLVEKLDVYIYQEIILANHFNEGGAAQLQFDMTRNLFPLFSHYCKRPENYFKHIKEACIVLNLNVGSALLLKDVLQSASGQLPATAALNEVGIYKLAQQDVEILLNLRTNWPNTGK
# UniProt Q6ZS11: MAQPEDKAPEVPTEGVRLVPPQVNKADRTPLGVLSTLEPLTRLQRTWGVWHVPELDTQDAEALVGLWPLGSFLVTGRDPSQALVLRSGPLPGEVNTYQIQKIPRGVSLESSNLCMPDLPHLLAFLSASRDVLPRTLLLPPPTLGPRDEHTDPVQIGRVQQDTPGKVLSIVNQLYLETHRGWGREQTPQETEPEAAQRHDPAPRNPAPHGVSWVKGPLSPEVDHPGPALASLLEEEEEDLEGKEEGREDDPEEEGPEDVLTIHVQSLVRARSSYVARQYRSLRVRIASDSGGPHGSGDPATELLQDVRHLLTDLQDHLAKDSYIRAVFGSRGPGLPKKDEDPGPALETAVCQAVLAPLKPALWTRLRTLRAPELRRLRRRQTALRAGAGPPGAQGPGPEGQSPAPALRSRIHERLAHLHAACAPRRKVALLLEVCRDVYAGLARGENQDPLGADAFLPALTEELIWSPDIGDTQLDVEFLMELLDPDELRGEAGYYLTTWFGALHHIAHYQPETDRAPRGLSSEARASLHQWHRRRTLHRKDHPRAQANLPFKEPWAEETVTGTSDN
# UniProt Q9H6W3: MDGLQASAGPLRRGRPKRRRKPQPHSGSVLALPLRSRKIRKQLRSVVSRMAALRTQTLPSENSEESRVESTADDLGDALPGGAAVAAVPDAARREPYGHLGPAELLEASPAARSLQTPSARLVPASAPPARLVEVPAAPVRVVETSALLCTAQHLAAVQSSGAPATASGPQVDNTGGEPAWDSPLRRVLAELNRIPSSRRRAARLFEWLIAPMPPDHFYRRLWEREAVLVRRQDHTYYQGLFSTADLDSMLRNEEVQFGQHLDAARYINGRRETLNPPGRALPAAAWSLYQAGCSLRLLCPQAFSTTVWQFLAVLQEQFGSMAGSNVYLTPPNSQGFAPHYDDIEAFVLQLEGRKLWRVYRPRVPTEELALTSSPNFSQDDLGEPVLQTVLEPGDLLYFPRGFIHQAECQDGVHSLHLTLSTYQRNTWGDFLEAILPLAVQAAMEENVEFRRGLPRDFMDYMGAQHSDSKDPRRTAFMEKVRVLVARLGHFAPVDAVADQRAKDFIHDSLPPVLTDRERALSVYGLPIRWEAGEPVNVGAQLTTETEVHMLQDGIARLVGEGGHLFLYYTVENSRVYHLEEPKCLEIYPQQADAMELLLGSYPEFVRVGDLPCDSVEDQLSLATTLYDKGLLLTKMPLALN
# UniProt Q9Y4L5, whole entry, looked up: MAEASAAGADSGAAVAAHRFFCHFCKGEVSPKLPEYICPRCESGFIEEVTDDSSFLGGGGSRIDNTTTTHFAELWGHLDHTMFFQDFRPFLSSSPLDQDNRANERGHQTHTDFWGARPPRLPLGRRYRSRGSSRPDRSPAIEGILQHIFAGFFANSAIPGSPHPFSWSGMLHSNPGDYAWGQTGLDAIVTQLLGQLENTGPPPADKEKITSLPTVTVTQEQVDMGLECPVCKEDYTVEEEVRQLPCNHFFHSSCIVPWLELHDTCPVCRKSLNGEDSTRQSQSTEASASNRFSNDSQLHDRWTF
# UniProt Q99496: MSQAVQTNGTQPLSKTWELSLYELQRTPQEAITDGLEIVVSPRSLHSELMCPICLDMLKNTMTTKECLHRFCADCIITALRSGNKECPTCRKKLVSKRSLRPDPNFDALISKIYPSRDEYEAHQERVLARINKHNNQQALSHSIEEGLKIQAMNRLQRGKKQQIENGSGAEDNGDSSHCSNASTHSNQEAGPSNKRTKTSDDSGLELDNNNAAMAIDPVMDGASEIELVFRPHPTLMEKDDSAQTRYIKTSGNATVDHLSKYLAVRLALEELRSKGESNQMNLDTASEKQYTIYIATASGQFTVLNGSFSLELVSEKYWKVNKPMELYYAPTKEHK
# UniProt Q9H920: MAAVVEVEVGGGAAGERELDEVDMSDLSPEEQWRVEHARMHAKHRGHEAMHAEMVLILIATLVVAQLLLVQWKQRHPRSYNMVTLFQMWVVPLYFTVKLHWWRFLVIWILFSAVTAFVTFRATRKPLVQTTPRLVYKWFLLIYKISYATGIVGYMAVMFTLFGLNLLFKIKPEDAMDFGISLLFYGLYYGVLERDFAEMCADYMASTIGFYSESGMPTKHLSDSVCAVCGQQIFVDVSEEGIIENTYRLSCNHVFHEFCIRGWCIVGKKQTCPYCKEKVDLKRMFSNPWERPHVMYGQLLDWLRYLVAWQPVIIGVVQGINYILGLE
# UniProt Q96GF1: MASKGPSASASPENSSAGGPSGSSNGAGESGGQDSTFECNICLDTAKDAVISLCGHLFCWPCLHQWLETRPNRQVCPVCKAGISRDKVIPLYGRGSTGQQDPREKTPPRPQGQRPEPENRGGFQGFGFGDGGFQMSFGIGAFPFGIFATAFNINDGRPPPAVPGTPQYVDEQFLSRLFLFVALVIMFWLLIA
# UniProt Q9BXT8: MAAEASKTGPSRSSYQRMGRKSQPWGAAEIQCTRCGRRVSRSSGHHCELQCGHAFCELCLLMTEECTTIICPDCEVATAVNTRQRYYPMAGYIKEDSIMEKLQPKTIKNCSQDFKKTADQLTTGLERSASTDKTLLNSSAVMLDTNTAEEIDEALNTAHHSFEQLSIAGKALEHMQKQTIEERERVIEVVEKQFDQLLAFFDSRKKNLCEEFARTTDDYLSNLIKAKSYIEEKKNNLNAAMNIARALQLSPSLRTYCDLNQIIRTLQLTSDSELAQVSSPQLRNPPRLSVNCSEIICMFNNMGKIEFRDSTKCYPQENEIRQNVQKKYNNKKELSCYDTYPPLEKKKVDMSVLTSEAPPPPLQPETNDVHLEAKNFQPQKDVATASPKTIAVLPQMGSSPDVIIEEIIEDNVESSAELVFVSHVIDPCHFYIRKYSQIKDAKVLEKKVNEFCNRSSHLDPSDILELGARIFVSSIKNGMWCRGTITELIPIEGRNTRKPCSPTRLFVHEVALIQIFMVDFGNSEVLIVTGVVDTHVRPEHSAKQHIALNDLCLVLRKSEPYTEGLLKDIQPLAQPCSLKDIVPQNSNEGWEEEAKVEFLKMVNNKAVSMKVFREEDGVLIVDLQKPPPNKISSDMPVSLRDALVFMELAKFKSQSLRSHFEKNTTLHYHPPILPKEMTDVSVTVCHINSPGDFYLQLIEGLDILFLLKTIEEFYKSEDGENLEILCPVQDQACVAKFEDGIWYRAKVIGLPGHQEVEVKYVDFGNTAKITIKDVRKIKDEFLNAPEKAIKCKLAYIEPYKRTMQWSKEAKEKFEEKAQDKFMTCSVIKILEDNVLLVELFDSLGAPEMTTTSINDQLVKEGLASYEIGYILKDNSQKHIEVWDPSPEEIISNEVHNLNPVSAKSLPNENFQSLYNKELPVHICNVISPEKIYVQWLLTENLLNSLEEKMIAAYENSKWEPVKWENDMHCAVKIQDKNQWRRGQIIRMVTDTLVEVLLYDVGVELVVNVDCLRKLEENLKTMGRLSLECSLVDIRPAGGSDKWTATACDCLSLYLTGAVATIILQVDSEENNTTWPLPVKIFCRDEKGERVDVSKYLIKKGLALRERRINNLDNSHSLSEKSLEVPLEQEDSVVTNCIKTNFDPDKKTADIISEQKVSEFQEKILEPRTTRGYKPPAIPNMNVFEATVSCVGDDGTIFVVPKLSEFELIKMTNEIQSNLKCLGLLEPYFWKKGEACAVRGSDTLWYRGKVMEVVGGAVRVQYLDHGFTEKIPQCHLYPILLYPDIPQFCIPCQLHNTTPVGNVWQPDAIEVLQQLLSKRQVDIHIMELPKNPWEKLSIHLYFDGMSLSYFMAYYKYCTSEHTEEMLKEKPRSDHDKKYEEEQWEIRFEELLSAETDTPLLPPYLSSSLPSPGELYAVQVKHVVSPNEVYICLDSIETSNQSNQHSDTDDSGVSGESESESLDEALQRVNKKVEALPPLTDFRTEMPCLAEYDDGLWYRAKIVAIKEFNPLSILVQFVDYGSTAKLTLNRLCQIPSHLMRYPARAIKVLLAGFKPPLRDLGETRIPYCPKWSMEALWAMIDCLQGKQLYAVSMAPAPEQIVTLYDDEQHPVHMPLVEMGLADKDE
# Some of the results follow.
# Compound: c1ccc([C@@H]2C[C@H]2NC2CCNCC2)cc1
# Test: log2 fold change, soluble protein after heating vs DMSO (PISA); higher = thermal stabilisation; K562 lysate, 10 uM; active = over 0.2 and 3.5 SD of the protein, either way, in both replicates (recomputed)
# Procedure, shortened: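 Dounce homogenisation of K562 pellets in PBS pH 7.4 with 1 mM MgCl2 produced a crude extract, used at 1 mg/mL protein. Exposure to 10 μM compound lasted 30 min, and aliquots were then heated for 3 min across 48°C-58°C, pooled and brought to 0.5% NP-40 at 4°C. The supernatant after 21,000xg for 90 min was quantified by TMTpro 16plex LC-MS/MS with channel sums equalised. Duplicate values are given as log-two fold change in thermal stability relative to solvent controls.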
row,Target,log2 fold change
1,RNFT1 (UniProt Q5M7Z0),inactive: -0.049
2,ROGDI (UniProt Q9GZN7),inactive: 0
3,RP9 (UniProt Q8TA86),inactive: -0.029
4,RNF8 (UniProt O76064),inactive: -0.046
5,RNF139 (UniProt Q8WU17),inactive: -0.033
6,RNF220 (UniProt Q5VTB9),inactive: 0.102
7,RNPC3 (UniProt Q96LT9),inactive: -0.034
8,RNF24 isoform 2 (UniProt Q9Y225),inactive: -0.115
9,RMND5B (UniProt Q96G75),inactive: 0.066
10,RNF167 (UniProt Q9H6Y7),inactive: -0.086
11,RNF5 (UniProt Q99942),inactive: -0.02
12,RHOU (UniProt Q7L0Q8),inactive: -0.015
13,RNPEPL1 (UniProt Q9HAU8),inactive: 0.102
14,RNF4 (UniProt P78317),inactive: -0.12
15,RNF41 (UniProt Q9H4P4),inactive: 0.029
16,RPAIN isoform 8 (UniProt Q86UA6),inactive: 0.065
17,RLF (UniProt Q13129),inactive: 0.011
18,RNASEH1 (UniProt O60930),inactive: 0.11
19,RINT1 (UniProt Q6NUQ1),inactive: 0.026
20,RILPL2 (UniProt Q969X0),inactive: -0.115
21,RINL (UniProt Q6ZS11),inactive: 0.205
22,RPL35A (UniProt P18077),inactive: -0.105
23,RIOX1 (UniProt Q9H6W3),inactive: 0.021
24,RNF115 (UniProt Q9Y4L5),inactive: -0.068
25,RNF2 (UniProt Q99496),inactive: 0.343
26,RNF121 (UniProt Q9H920),inactive: -0.124
27,RNF185 (UniProt Q96GF1),inactive: 0.081
28,RNF17 (UniProt Q9BXT8),inactive: 0.451

# Exported as tab-separated lines: entries from further up.
row	Target	log2 fold change
7	RNPC3 (UniProt Q96LT9)	inactive: -0.034
8	RNF24 isoform 2 (UniProt Q9Y225)	inactive: -0.115
